From paper PMC4738315, “How to unveil self-quenched fluorophores and subsequently map the subcellular distribution of exogenous peptides” (Scientific Reports, 2016) come the findings set out here.

One series has as its system Caco-2 cells. Put plainly: CLSM subcellular distribution in living Caco-2 cells. The class given is cell-based, human. Conditions: undifferentiated Caco-2 cells (Fig. 5), 60 min, Opti-MEM.
The next series deals with MA-104 cells. In words: CLSM subcellular distribution in living MA-104 cells. Conditions: 10 min, 20 μM total Arg9, 3 to 10% or 100% fluorescein-labeled, Opti-MEM. The class given is cell-based, monkey.

Take “Ac-K(Fluo)RRRRRRRRR-NH2 [Fluo-Arg9, Arg9 labeled with fluorescein on the side chain of an extra N-terminal lysine]”: the entries for the “Colocalization of CPP fluorescence with lysotracker” value in the series on Caco-2 cells (10% dilution (2 μM Fluo-Arg9 plus 18 μM Arg9)) and in the series with Caco-2 cells (100% Fluo-Arg9 (20 μM)) were “strong colocalization” and “never colocalized”, respectively. As to “RRRRRRRRR [Arg9, nona-arginine, nona-arginine cell-penetrating peptide, reference compound]”, the “Targeting of mitochondria (colocalization with mitotracker)” value with MA-104 cells is listed as “not targeted”.
